# Some peptides are written in HELM: one residue between dots, names in brackets for other building blocks, links after the first $.
# Test: general procedure: peptide synthesis; [4-(oxymethylphenylacetamidomethyl] resin loaded with Boc-alanine (B chain); p-benzyloxybenzyl resin (A chain)
# Settings: conjugation step
substance,measurement,value
"PEPTIDE1{Q.L.Y.S.A.L.A.N.K.C.C.H.V.G.C.T.K.R.S.L.A.R.F.C}|PEPTIDE2{D.S.W.M.E.E.V.I.K.L.C.G.R.E.L.V.R.A.Q.I.A.I.C.G.M.S.T.W.S}$PEPTIDE1,PEPTIDE1,10:R3-15:R3|PEPTIDE1,PEPTIDE2,11:R3-11:R3|PEPTIDE1,PEPTIDE2,24:R3-23:R3$$$V2.0",conjugation yield,78.3%
